Test results as given in the supplement of paper PMC9233669.
This sample is rich in variants without activity.

Key:
[1] = test system: biotinyl-Phe-oxazolone; assay: self-aminoacylation, catalytic enhancement (BFO) (fold over background); higher = more active; k-Seq, kA / k0A0; sequences stand for … in GGGAAUGGAUCCACAUCUACGAAUUC…UUCACUGCAGACUUGACGAAGCUG
In short: (§1)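 Each biotinyl-aminoacyl-oxazolone, at 2–1250 μM, was incubated with mutagenized RNA pools (0.43 μM) carrying a 21-nt variable region. The 50 μL reactions contained HEPES/NaCl/KCl/MgCl2/CaCl2 buffer with 5% acetonitrile at pH 6.9–7.0 and ran for 90 minutes at room temperature. After streptavidin capture, RNA was measured by qPCR in triplicate and by Illumina sequencing, and catalytic enhancement was calculated as median kA over the uncatalyzed rate from a pseudo-first-order fit of per-sequence fraction reacted.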

[2] = test system: biotinyl-Ile-oxazolone; assay: self-aminoacylation, catalytic enhancement (BIO) (fold over background); higher = more active; k-Seq, kA / k0A0; sequences stand for … in GGGAAUGGAUCCACAUCUACGAAUUC…UUCACUGCAGACUUGACGAAGCUG
In short: as §1

[3] = test system: biotinyl-Met-oxazolone; assay: self-aminoacylation, catalytic enhancement (BMO) (fold over background); higher = more active; k-Seq, kA / k0A0; sequences stand for … in GGGAAUGGAUCCACAUCUACGAAUUC…UUCACUGCAGACUUGACGAAGCUG
In short: as §1

[4] = test system: biotinyl-Val-oxazolone; assay: self-aminoacylation, catalytic enhancement (BVO) (fold over background); higher = more active; k-Seq, kA / k0A0; sequences stand for … in GGGAAUGGAUCCACAUCUACGAAUUC…UUCACUGCAGACUUGACGAAGCUG
In short: as §1

[5] = test system: biotinyl-Leu-oxazolone; assay: self-aminoacylation, catalytic enhancement (BLO) (fold over background); higher = more active; k-Seq, kA / k0A0; sequences stand for … in GGGAAUGGAUCCACAUCUACGAAUUC…UUCACUGCAGACUUGACGAAGCUG
In short: as §1

[6] = test system: biotinyl-Trp-oxazolone; assay: self-aminoacylation, catalytic enhancement (BWO) (fold over background); higher = more active; k-Seq, kA / k0A0; sequences stand for … in GGGAAUGGAUCCACAUCUACGAAUUC…UUCACUGCAGACUUGACGAAGCUG
In short: as §1

Sequence | self-aminoacylation [1] | self-aminoacylation [2] | self-aminoacylation [3] | self-aminoacylation [4] | self-aminoacylation [5] | self-aminoacylation [6]
AAAUUUGCGAAUAGUCGCAAG [Fam3.1 aminoacylation ribozyme variant] | 1.99 | 1.71 | 1.59 | 1.56 | 1.33 | 1.54
AAAUUUGCUAAUUGUCGCAAG [Fam3.1 aminoacylation ribozyme variant] | 1.59 | 1.67 |  | 1.78 | 1.44 | 1.94
AACUUUGCUAAUAGACGCAAG [Fam3.1 aminoacylation ribozyme variant] | 1.49 | 1.59 | 1.22 | 1.55 | 1.08 | 1.18
AACUUUGGUAAUAGUCGCAAG [Fam3.1 aminoacylation ribozyme variant] | 3.84 | 2.58 | 2.22 | 2.15 | 3.08 | 2.24
AAGAUAGCUAAUAGUCGCAAG [Fam3.1 aminoacylation ribozyme variant] | 2.4 | 1.63 | 1.57 | 1.34 | 1.82 | 1.34
AAGAUUCCUAAUAGUCGCAAG [Fam3.1 aminoacylation ribozyme variant] | 0.831 | 1.26 | 0.951 | 1.53 | 0.939 | 0.755
AAGAUUGCUAAUAGUCGCAAU [Fam3.1 aminoacylation ribozyme variant] | 2.37 | 1.54 | 1.85 | 1.41 | 1.37 | 1.14
AAGAUUGCUAAUAGUCGCACG [Fam3.1 aminoacylation ribozyme variant] | 1.12 | 1.18 | 1.65 | 1.62 | 1.36 | 1.97
AAGGUCGCUAAUAGUCGCAAG [Fam3.1 aminoacylation ribozyme variant] | 2.86 | 1.98 | 1.94 | 2.13 | 1.81 | 2.4
AAGGUUGCUAAAAGUCGCAAG [Fam3.1 aminoacylation ribozyme variant] | 4.28 | 1.62 | 1.52 | 1.67 | 1.6 | 1.93
AAGUAUGCUAAUACUCGCAAG [Fam3.1 aminoacylation ribozyme variant] | 1.04 | 1.1 | 1.32 | 1.12 | 1.09 | 1.35
AAGUCUGCUAAUAGUCUCAAG [Fam3.1 aminoacylation ribozyme variant] | 19.4 | 1.14 | 1.76 | 1.2 | 1.43 | 4.59
AAGUGUGAUAAUAGUCGCAAG [Fam3.1 aminoacylation ribozyme variant] | 0.975 | 1.29 | 0.967 | 1.25 | 1.09 | 1.9
AAGUGUGCUAAUAGACGCAAG [Fam3.1 aminoacylation ribozyme variant] | 1.03 | 0.745 | 0.553 | 0.721 | 0.504 | 0.701
AAGUGUGCUAAUAGGCGCAAG [Fam3.1 aminoacylation ribozyme variant] | 0.73 | 1.07 | 1.07 | 1.1 | 1.1 | 1.08
AAGUGUGCUAUUAGUCGCAAG [Fam3.1 aminoacylation ribozyme variant] | 2.19 | 1.29 | 1.36 | 1.43 | 0.947 | 0.997
AAGUUAGAUAAUAGUCGCAAG [Fam3.1 aminoacylation ribozyme variant] | 1.27 | 1.16 | 0.646 | 0.934 | 0.885 | 0.921
AAGUUAGCUAAUAGUCGCAGG [Fam3.1 aminoacylation ribozyme variant] | 4.27 | 1.76 | 1.6 | 1.8 | 1.62 | 1.77
AAGUUAGCUAAUAGUCGCGAG [Fam3.1 aminoacylation ribozyme variant] | 2.29 | 1.71 | 1.52 | 1.57 | 2.09 | 2.24
AAGUUAGCUAAUAGUCGUAAG [Fam3.1 aminoacylation ribozyme variant] | 14 | 1.45 | 1.35 | 1.47 | 1.23 | 3.54
AAGUUCACUAAUAGUCGCAAG [Fam3.1 aminoacylation ribozyme variant] | 2.72 | 1.96 | 1.37 | 1.86 | 1.8 | 2.23
AAGUUGGCUAAUAGUAGCAAG [Fam3.1 aminoacylation ribozyme variant] | 1.36 | 1.44 | 1.53 | 1.19 | 1.19 | 1.39
AAGUUGGCUAAUAGUCGCGAG [Fam3.1 aminoacylation ribozyme variant] | 1.05 | 1.68 | 1.5 | 1.37 | 1.43 | 3.96
AAGUUUACUAAUAAUCGCAAG [Fam3.1 aminoacylation ribozyme variant] | 1.58 | 1.29 | 1.4 | 1.3 | 1 | 1.22
AAGUUUACUAAUAGUCGCAAC [Fam3.1 aminoacylation ribozyme variant] | 1.9 | 1.4 | 1.14 | 1.35 | 1.17 | 1.43
AAGUUUCCUAAUAGGCGCAAG [Fam3.1 aminoacylation ribozyme variant] | 0.658 | 0.886 | 1.14 | 0.874 | 1.12 | 0.84

Sequence | self-aminoacylation [1] | self-aminoacylation [2] | self-aminoacylation [3] | self-aminoacylation [4] | self-aminoacylation [5] | self-aminoacylation [6]
AAGUUUCCUAAUAGUCGGAAG [Fam3.1 aminoacylation ribozyme variant] | 1.51 | 1.44 | 1.14 | 0.99 | 1.32 | 1.68
AAGUUUCCUAAUAGUCUCAAG [Fam3.1 aminoacylation ribozyme variant] | 2.15 | 1.26 | 1.07 | 1.07 | 1.08 | 1.31
AAGUUUGAUAAUAGUCCCAAG [Fam3.1 aminoacylation ribozyme variant] | 0.838 | 0.613 | 0.47 | 0.515 | 0.423 | 0.489
AAGUUUGAUAAUAGUCGCACG [Fam3.1 aminoacylation ribozyme variant] | 0.894 | 0.91 | 0.633 | 0.779 | 0.699 | 1.43
AAGUUUGAUAAUAGUGGCAAG [Fam3.1 aminoacylation ribozyme variant] | 0.547 | 0.559 | 0.396 | 0.5 | 0.423 | 0.405
AAGUUUGAUAAUAGUUGCAAG [Fam3.1 aminoacylation ribozyme variant] | 0.854 | 0.785 | 0.588 | 0.685 | 0.845 | 0.733
AAGUUUGCAAAAAGUCGCAAG [Fam3.1 aminoacylation ribozyme variant] | 1.72 | 0.902 | 1.07 | 0.733 | 0.938 | 0.831
AAGUUUGCAAAUAGUCGCACG [Fam3.1 aminoacylation ribozyme variant] | 0.992 | 0.964 | 0.694 | 0.93 | 0.787 | 0.66
AAGUUUGCAAAUAGUCGCAGG [Fam3.1 aminoacylation ribozyme variant] | 1.86 | 1.51 | 1.43 | 1.31 | 1.53 | 1.38
AAGUUUGCAACUAGUCGCAAG [Fam3.1 aminoacylation ribozyme variant] | 1.35 | 0.91 | 0.876 | 0.942 | 1.45 | 0.893
AAGUUUGCAGAUAGUCGCAAG [Fam3.1 aminoacylation ribozyme variant] | 0.81 | 0.983 | 0.85 | 0.736 | 0.866 | 1.08
AAGUUUGCCAAUACUCGCAAG [Fam3.1 aminoacylation ribozyme variant] | 0.833 | 0.777 | 0.897 | 0.981 | 0.885 | 0.921
AAGUUUGCCAAUAGUAGCAAG [Fam3.1 aminoacylation ribozyme variant] | 1.47 | 0.927 | 1.34 | 1.07 | 0.909 | 0.758
AAGUUUGCGAAUAGUCUCAAG [Fam3.1 aminoacylation ribozyme variant] | 0.91 | 0.861 | 0.799 | 0.901 | 0.878 | 0.798
AAGUUUGCUAAAAGUCGCUAG [Fam3.1 aminoacylation ribozyme variant] | 1.38 | 0.911 | 0.781 | 0.803 | 0.944 | 0.783
AAGUUUGCUAACAGUCGCAAC [Fam3.1 aminoacylation ribozyme variant] | 1.18 | 0.931 | 0.839 | 0.834 | 0.738 | 0.746
AAGUUUGCUAACAGUGGCAAG [Fam3.1 aminoacylation ribozyme variant] | 1.67 | 0.656 | 0.904 | 0.841 | 0.683 | 0.839
AAGUUUGCUAAGAGUCACAAG [Fam3.1 aminoacylation ribozyme variant] | 1.73 | 1.03 | 0.953 | 0.938 | 0.794 | 0.964
AAGUUUGCUAAGGGUCGCAAG [Fam3.1 aminoacylation ribozyme variant] | 0.498 | 0.706 | 0.629 | 0.757 | 0.52 | 0.784
AAGUUUGCUAAUAAGCGCAAG [Fam3.1 aminoacylation ribozyme variant] | 0.606 | 0.524 | 0.545 | 0.412 | 0.503 | 0.744
AAGUUUGCUAAUAAUCGCUAG [Fam3.1 aminoacylation ribozyme variant] | 1.08 | 0.938 | 0.919 | 0.861 | 1.08 | 0.885
AAGUUUGCUAAUACUCGGAAG [Fam3.1 aminoacylation ribozyme variant] | 1.03 | 0.616 | 0.743 | 0.608 | 0.484 | 0.636
AUUCACCUAGGUCACCGGGUC [Fam2.2 aminoacylation ribozyme variant] | 1.59 | 1.62 | 1.91 |  | 1.01 | 1.28
CCACACGUCAAGCAAUCGCUC [Fam1B.1 aminoacylation ribozyme variant] | 1.58 | 1.91 |  |  | 1.66 | 1.89
CCACACUUCACGCAAUCGCUC [Fam1B.1 aminoacylation ribozyme variant] | 1.78 | 1.14 | 1.37 |  | 1.42 | 1.35
